Test system: chronic constriction injury (CCI) model, mechano-allodynia
Assay: Morphine analgesic tolerance in CCI model, co-administration with A3AR agonist
Conditions: mouse, in vivo

CN1CC[C@]23c4c5ccc(O)c4O[C@H]2[C@@H](O)C=C[C@H]3[C@H]1C5 [morphine]
Plasma levels of morphine in the presence or absence of the A3AR agonist: similar

Source: patent US10577368B2 (The United States of America, as represented by the …, priority 2013, dated 2020)
